{
  "sequences": {"note": "Protein sequences, listed by entry. Tags and fused reporters are not part of them. Lines headed by an entry give the natural chain unless they say otherwise; changes in a name come on top.", "UniProt P15090": "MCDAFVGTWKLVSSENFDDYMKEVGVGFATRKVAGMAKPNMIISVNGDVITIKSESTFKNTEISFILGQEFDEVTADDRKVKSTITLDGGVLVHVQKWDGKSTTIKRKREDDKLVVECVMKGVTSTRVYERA", "UniProt Q9DBL9": "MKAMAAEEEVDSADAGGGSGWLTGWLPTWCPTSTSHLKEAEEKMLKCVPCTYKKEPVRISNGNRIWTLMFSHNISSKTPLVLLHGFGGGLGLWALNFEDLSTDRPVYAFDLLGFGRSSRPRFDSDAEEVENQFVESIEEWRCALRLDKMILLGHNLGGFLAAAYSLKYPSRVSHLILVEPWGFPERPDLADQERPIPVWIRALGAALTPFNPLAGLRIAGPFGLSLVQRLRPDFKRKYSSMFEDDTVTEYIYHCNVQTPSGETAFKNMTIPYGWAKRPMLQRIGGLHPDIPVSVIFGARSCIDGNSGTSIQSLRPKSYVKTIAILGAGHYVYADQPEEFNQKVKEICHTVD"},
  "source": "paper PMC4513104",
  "target": "A-Fabp^D18K (human) (UniProt P15090)",
  "test": "ELISA; solid phase assay: 96-well polystyrene plates coated overnight with 3 μg of purified Fabp, blocked with 5% delipidated BSA in TBS (50 mM Tris, pH 8.0, 150 mM NaCl); COS-7 cell extracts (10–60 μg of total protein) with His-tagged proteins, 2% BSA, 0.05% Tween 20, overnight; anti-His primary and Hrp-conjugated secondary antibody, absorbance 450/620 nm; only the target purified",
  "note": "These are yes or no findings as the source states them, for the method shown. Binding calls can cover weak binding; strength is not graded here.",
  "data": [
    {"substance": "His-tagged murine Cgi-58 (from UniProt Q9DBL9 1-351)", "values": [
      {"measurement": "binding", "result": "binds"}
    ]}
  ]
}
